The values that follow come from publication PMC6362814.

Amino acid sequences for entries named in this document (tags omitted).
UniProt Q9QZQ1: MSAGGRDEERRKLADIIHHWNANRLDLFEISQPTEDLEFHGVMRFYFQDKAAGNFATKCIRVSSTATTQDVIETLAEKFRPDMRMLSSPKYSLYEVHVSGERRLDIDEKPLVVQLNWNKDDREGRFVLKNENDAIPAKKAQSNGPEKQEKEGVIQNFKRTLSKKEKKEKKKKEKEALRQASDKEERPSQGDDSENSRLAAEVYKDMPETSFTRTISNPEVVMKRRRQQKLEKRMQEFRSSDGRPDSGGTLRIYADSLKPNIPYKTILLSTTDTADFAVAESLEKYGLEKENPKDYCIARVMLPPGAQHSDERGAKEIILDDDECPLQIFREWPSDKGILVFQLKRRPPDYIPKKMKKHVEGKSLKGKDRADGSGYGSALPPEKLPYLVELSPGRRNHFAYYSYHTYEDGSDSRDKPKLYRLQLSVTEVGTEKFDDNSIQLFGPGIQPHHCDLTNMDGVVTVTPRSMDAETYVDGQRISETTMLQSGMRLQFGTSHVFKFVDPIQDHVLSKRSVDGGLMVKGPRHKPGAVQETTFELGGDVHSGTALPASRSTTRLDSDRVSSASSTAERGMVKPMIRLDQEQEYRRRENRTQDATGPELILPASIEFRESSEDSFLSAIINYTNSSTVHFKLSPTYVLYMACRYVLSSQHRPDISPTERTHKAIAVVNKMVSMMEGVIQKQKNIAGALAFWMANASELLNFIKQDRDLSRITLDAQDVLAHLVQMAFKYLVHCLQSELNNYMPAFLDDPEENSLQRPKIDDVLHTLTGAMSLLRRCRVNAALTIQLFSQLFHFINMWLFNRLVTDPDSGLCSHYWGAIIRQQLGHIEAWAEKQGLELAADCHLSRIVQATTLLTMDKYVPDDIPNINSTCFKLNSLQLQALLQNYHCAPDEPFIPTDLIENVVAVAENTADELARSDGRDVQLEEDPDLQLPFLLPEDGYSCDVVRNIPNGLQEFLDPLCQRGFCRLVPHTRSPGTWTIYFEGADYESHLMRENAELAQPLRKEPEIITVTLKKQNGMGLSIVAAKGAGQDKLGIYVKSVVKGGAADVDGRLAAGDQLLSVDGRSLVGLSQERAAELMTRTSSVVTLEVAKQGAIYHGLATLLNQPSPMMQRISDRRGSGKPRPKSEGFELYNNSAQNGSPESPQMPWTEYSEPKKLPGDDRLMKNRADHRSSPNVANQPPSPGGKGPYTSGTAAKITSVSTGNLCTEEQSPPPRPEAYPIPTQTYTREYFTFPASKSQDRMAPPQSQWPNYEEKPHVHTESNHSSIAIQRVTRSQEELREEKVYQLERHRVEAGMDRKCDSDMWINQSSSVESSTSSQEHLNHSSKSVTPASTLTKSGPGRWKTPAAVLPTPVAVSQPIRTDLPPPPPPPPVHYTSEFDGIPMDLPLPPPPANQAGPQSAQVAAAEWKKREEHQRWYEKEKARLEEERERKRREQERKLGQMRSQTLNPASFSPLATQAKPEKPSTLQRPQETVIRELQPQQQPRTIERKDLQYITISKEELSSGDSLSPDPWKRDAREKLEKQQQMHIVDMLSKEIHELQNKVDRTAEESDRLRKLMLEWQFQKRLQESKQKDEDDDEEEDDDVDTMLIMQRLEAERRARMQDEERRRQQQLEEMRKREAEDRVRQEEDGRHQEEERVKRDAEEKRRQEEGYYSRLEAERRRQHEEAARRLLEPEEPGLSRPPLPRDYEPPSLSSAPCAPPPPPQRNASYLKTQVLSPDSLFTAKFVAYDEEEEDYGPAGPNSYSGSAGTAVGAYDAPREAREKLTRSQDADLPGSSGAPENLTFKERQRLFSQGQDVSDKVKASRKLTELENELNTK

The test has as its target T1, Claudin-2 (mouse, endogenous in 2776 cells) (mouse (endogenous in 4T1-derived 2776 cells)) (UniProt O88552).
T1 sequence: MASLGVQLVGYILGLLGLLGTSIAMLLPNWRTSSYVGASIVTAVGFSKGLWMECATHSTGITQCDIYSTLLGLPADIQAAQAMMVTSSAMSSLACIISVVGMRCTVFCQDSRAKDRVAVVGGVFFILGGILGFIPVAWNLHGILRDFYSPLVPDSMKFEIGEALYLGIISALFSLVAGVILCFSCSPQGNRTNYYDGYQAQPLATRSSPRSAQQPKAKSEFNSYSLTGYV
Put plainly: co-IP; whole-cell lysates of 2776 liver-aggressive 4T1 cells; reciprocal immunoprecipitation of Claudin-2 and Afadin; immunoblot. (In general: In western blotting, separated proteins are transferred to a membrane and probed.)

Results are given in words; binding and its absence hold for the method and conditions named. Binding seen in cells or lysates may run through a third protein. Some entries that bind do so weakly or less than the wild type.

Consider “Afadin (mouse, endogenous in 2776 cells) (from UniProt Q9QZQ1 1-1820)”, for which the binding result is “binds”.
